Measurements taken from patent US8124356B2, “Methods of purifying zsig33” (ZymoGenetics, Inc., priority 1999, dated 2012).
At least one compound was matched to its structure with a doubt left.

Test system: antral portion of the stomach
Experiment: Effects on gastrointestinal contractility (transducing crystals on antral portion of the stomach)
Format: in vivo, Sprague-Dawley rats
Conditions: 10 ml of 1 mM applied topically to the stomach, anesthetized rats
Experimental: Two male Sprague-Dawley rats, approximately 12 weeks old (Harlan, Indianapolis, Ind.) were anesthetized with urethane and their stomachs were exposed through a small abdominal incision. Two 2.4 mm transducing crystals (Sonometrics, Ontario, Canada) were placed on the antral portion of the stomach such that circular contractions could be monitored as a change in the distance between the two crystals. The crystals were attached with VETBOND TISSUE ADHESIVE (3M, St. Paul, Minn.).
10 ml of norepinephrine (NE) at 1 mM caused a reduction in the distance between the two crystals. The amplitude of the NE-induced decrease was approximately 50% of the acetylcholine-induced increase in distance. Both responses were transient.
A negative control of 10 ml of phosphate buffer solution (PBS) applied topically between the crystals had no effect.
A 14 amino acid zsig33 peptide (zsig33-1, as shown in Example 4) was dissolved in PBS and 10 ml was applied topically for a final concentration of 1 mg, 10 mg or 100 mg.

SMILES: CC(=O)OCC[N+](C)(C)C [acetylcholine]
- change in the distance between the two crystals: rapid, but transient increase
